Source: PubChem BioAssay AID1508588 (Peter MacCallum Cancer Centre, 2020)

Screen: 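Genome-wide search for knock-downs that heighten vemurafenib action in melanoma cells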 (primary screen)
Cells: human WM266.4 melanoma cells (BRAF V600 mutant)
Reagent: siRNA pool against human genes, 40 nM
Timing: 96 h from transfection to read-out
Challenge: vemurafenib 300 nM (about IC25), added 48 h after transfection, for 48 h; comparison arm got DMSO vehicle only
Measurement: 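Cell gain (DAPI nuclei at end minus before drug, mean of two replicates) and medium lactate by absorbance per cell, both as ratio to non-targeting siRNA, also grouped into fold-change classes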
Reading the numbers: cell gain with vemurafenib: higher = more cell gain than with non-targeting siRNA; lactate per cell with vemurafenib: higher = more lactate made per cell
Call rule: 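a knock-down counts as enhancing when its fold-change classes with vehicle and with vemurafenib, taken together, show a stronger drug effect on cell gain or lactate per cell; exact class pairs not stated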
Meaning of the calls: active = enhances vemurafenib effect; inactive = no enhancement seen
Shown is one part, drawn at random, of about 18,000 reagents. In the full data, 790 (4.4%) are marked active. 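Calls rest on a combination of fold-change classes in drug and vehicle arms, not all shown here.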 The numbers tell different reagents against one gene apart.

The opening 4 records, ahead of the listing:
| cell gain with vemurafenib | lactate per cell with vemurafenib | activity call | gene | reagent |
| --- | --- | --- | --- | --- |
| 0.77 | 0.68 | inactive | UGT1A8 | 1 |
| 0.61 | 0.4 | inactive | HSD17B11 | 1 |
| 0.64 | 0.48 | inactive | YARS1 | 1 |
| 1 | 0.89 | inactive | RESF1 | 1 |

Results, from the first entry:
| cell gain with vemurafenib | lactate per cell with vemurafenib | activity call | gene | reagent |
| --- | --- | --- | --- | --- |
| 0.77 | 0.68 | inactive | UGT1A8 | 1 |
| 0.61 | 0.4 | inactive | HSD17B11 | 1 |
| 0.64 | 0.48 | inactive | YARS1 | 1 |
| 1 | 0.89 | inactive | RESF1 | 1 |
| 0.69 | 1.36 | inactive | COG1 | 1 |
| 0.92 | 0.74 | inactive | PRELID1 | 1 |
| 0.31 | 1.27 | inactive | ZNF552 | 1 |
| 0.71 | 0.7 | inactive | HDLBP | 1 |
| 0.48 | 0.32 | inactive | ACOT2 | 1 |
| 0.64 | 1.1 | inactive | USP5 | 1 |
| 0.22 | 0.76 | inactive | MCHR2 | 1 |
| 1 | 0.89 | inactive | CD40LG | 1 |
| 0.37 | 1.86 | inactive | ALG12 | 1 |
| 0.68 | 0.72 | inactive | CITED2 | 1 |
| 0.82 | 0.73 | inactive | TEKT4 | 1 |
| 1.44 | 1 | inactive | H4C1 | 1 |
| 0.78 | 1.17 | inactive | MRPS9 | 1 |
| 0.66 | 0.63 | inactive | PPEF1 | 1 |
| 0.76 | 0.52 | inactive | TRARG1 | 1 |
| 0.23 | 0.72 | inactive | CDC42EP1 | 1 |
| 0.46 | 0.65 | inactive | ALX4 | 1 |
| 0.33 | 0.59 | inactive | ATP7A | 1 |
| 0.9 | 0.88 | inactive | LOC400576 (retired record) | 1 |
| 0.48 | 1.16 | inactive | PRB3 | 1 |
| 0.91 | 1.06 | inactive | SIRPA | 1 |
| 0.38 | 1.21 | inactive | SMIM8 | 1 |
| 1.08 | 0.59 | inactive | KIN | 1 |
| 0.82 | 1.26 | inactive | DYNC2I2 | 1 |
| 0.49 | 0.9 | inactive | HOXC12 | 1 |
| 0.62 | 1.03 | inactive | UBE3B | 1 |
| 0.74 | 0.92 | inactive | E2F3 | 1 |
| 1.01 | 0.74 | inactive | YIPF1 | 1 |
| 0.39 | 1.32 | inactive | NCBP1 | 1 |
| -0.12 | -0.01 | active | VCF2 | 1 |
| 0.94 | 1.33 | inactive | KRT6B | 1 |
| 0.74 | 1.19 | inactive | COL8A1 | 1 |
| 0.46 | 0.4 | inactive | SNRPB2 | 1 |
| 0.14 | 0.77 | inactive | ARHGAP28 | 1 |
| 0.16 | 0.64 | active | MAIP1 | 1 |
| 0.74 | 0.74 | inactive | TBX18 | 1 |
| 0.75 | 1 | inactive | CPSF4 | 1 |
| 0.24 | 1.34 | inactive | GEMIN6 | 1 |
| 0.31 | 1.11 | inactive | COASY | 1 |
| 0.46 | 1.06 | inactive | RNFT1 | 1 |
| 0.74 | 0.26 | inactive | SSTR4 | 1 |
| 1.11 | 0.6 | inactive | SLC32A1 | 1 |
| 0.99 | 0.89 | inactive | GDAP1 | 1 |
| 0.63 | 1.17 | inactive | UGT2B7 | 1 |
| 0.51 | 0.58 | inactive | KLF1 | 1 |
| 0.43 | 0.52 | inactive | KATNAL1 | 1 |
| 0.61 | 0.92 | inactive | GABPA | 1 |
| 0.84 | 0.37 | inactive | BCAT2 | 1 |
| 0.25 | 2.04 | inactive | NOA1 | 1 |
| 0.9 | 0.46 | inactive | CSDE1 | 1 |
| 0.18 | 2.12 | inactive | SNW1 | 1 |
| 0.64 | 0.3 | inactive | SULT6B1 | 1 |
| 0.25 | 1.26 | inactive | GPR161 | 1 |
| 0.36 | 1.65 | inactive | CDKN2A | 1 |
| 0.3 | 0.65 | inactive | CLEC12B | 1 |
| 0.33 | 0.32 | active | BRIP1 | 1 |
| 0.74 | 1.19 | inactive | DPH1 | 1 |
| 0.56 | 2.43 | inactive | ZWINT | 1 |
| 0.36 | 0.42 | active | LEAP2 | 1 |
| 0.87 | 1.04 | inactive | DCUN1D2 | 1 |
| 0.68 | 0.28 | active | P2RY13 | 1 |
| 0.3 | 1.51 | inactive | CBX1 | 1 |
| 0.07 | 1.31 | inactive | SNRPB | 1 |
| 0.37 | 1.83 | inactive | MORN1 | 1 |
| 0.37 | 2.03 | inactive | OR7D2 | 1 |
| 0.46 | 0.68 | inactive | CYP3A5 | 1 |
| 0.46 | 1.02 | inactive | ZSCAN4 | 1 |
| 1.41 | 0.57 | inactive | C1orf216 | 1 |
| 0.48 | 0.87 | inactive | MRPL38 | 1 |
| 1.03 | 0.6 | inactive | ASXL1 | 1 |
| 0.61 | 0.84 | inactive | ABCE1 | 1 |
| 0.6 | 1.9 | inactive | KCTD5 | 1 |
| 0.42 | 1.87 | inactive | ANGPT1 | 1 |
| 0.05 | 1.6 | inactive | UBA52 | 1 |
| 0.69 | 0.72 | inactive | NEFL | 1 |
| 0.73 | 0.65 | inactive | XRN2 | 1 |
| 0.24 | 1.15 | inactive | CFAP47 | 1 |
| 1.05 | 0.79 | inactive | CFAP47 | 2 |
| 0.45 | 0.57 | inactive | LAIR1 | 1 |
| 0.36 | 1.09 | inactive | PRDM8 | 1 |
